# From publication PMC5946011
# Results are given in words; binding and its absence hold for the method and conditions named. In cells and extracts the contact can be indirect. These calls come from enrichment with a bait or labelling near it, and not all partners need be listed. A no says only that the protein was not detected with the bait.
# Target: CD4 (UniProt P01730)
# Test: affinity purification with mass spectrometry
row,Binder,binding
1,PLTSLRSLFGNDPSSQ,no binding
2,VVEEKAFSPEVIP,no binding
3,VVEEKAFSPEVI,no binding
4,FLGKIWPSYKGRPGNF,no binding
5,PIVQNIQGQMVHQAISPRTLNA,no binding
6,AEAMSQVTNSATIM,no binding
